# Experimental data as given in PubChem BioAssay AID588590 (National Center for Advancing Translational Sciences (NCATS), 2011).
# Sequences of proteins named here, by UniProt entry; tags and fusion partners are left off. A change or cut given only in a name is not applied to a line headed by its entry.
# UniProt Q9UNA4: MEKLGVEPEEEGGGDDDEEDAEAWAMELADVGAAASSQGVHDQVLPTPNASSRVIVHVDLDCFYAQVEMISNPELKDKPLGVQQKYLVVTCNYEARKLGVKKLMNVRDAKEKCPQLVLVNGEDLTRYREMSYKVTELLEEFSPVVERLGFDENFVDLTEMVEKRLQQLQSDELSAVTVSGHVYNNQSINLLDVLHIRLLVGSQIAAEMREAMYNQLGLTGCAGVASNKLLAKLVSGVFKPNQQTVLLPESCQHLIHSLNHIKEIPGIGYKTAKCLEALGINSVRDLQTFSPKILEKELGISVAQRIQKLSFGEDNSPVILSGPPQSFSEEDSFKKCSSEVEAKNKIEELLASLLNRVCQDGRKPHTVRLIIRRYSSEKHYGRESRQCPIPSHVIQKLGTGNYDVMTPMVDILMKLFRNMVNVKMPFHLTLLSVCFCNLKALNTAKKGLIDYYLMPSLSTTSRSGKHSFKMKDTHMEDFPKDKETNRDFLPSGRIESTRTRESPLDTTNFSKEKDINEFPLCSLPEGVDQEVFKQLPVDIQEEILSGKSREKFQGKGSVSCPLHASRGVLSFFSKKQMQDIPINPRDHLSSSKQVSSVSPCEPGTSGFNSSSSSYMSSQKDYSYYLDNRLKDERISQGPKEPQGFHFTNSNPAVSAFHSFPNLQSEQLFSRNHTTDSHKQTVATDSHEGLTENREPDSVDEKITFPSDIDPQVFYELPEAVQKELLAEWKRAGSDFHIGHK
# The campaign covered roughly 390,000 compounds. About 4,000 (1%) were called active. The shares of active, inactive and inconclusive entries below differ from those in the screen. Calls follow the shape of the dose curve; as a rule, active = well fitted inhibition curve with a large enough effect; inconclusive = small, poorly fitted or top-dose-only effect, or another doubt; inactive = no such curve, though single readings can be large or run the other way. A potency beside an inconclusive call is a rough fit, not a confirmed value.
# Target: DNA polymerase iota (Homo sapiens) (UniProt Q9UNA4)
# Test: qHTS for Inhibitors of Polymerase Iota
# Settings: Pol iota fluorescent replication assay, 10 min; series mostly up to 115 µM
# In short: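 Fluorescent replication assay read twice, at 0 min and 10 min after adding 50 nM (final) substrate. Enzyme (10 nM) and compounds were first incubated 15 min at room temperature; enzyme-free buffer wells were negative controls.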
# Potency is read from the fitted curve at half-maximal effect.
row,Structure (SMILES),Potency
1,COc1cc(OC)c(OC)cc1CNC(=O)CCN1C(=O)c2cccc([N+](=O)[O-])c2C1=O,"inconclusive: 39.8 µM [inhibitor, partial curve]"
2,CCN1CCSc2ccc(C(=O)NCc3ccccc3Br)cc21,"inconclusive: 79.4 µM [inhibitor, single point]"
3,N#C/C(=C\c1ccc[nH]1)S(=O)(=O)c1ccccc1,"inconclusive: 100 µM [inhibitor, partial curve]"
4,Cc1cccc(NC(=O)C2=C(O)c3ccccc3N(C)S2(=O)=O)c1,"inconclusive: 11.2 µM [inhibitor, partial curve, poor fit]"
5,Cc1[nH]n(-c2ccccc2)c(=O)c1/C=N/Nc1nncc(-c2ccccc2)n1,inactive
6,Cc1cccc(N(CC(N)=O)C2SC(=O)N(Cc3cccc(C(=O)O)c3)C2=O)c1 (stereo unspecified),inactive
7,CC(C)OC(=O)CSc1nc2ccccc2s1,"inconclusive: 39.8 µM [inhibitor, single point]"
8,O=C(C1=C(O)C(=O)N(CCc2ccccc2)C1c1ccncc1)c1cc2ccccc2o1 (stereo unspecified),"inconclusive: 25.1 µM [inhibitor, partial curve, poor fit]"
9,Brc1cccc[n+]1CCCC[n+]1ccccc1Br,"inconclusive: 3.98 µM [inhibitor, full curve, poor fit]"
10,COC(=O)Cc1c(C)nc2nc(-c3ccc(C)cc3)[nH]n2c1=O,inactive
11,CN1CCN(C2=C(Cl)C(=O)N(c3ccc(Cl)c(Cl)c3)C2=O)CC1,"inconclusive: 31.6 µM [inhibitor, partial curve, poor fit]"
12,Cc1cc(C)c2nc(NC(=O)c3cc(C)on3)sc2c1,"inconclusive: 11.2 µM [inhibitor, partial curve, poor fit]"
13,COc1cc(/C=C2/C(=N)N3N=C(CC(=O)N4CCOCC4)SC3=NC2=O)ccc1OCc1ccc(F)cc1,"inconclusive: 63.1 µM [inhibitor, partial curve, poor fit]"
14,O=C(c1ccc(Cl)c(S(=O)(=O)N2CCc3ccccc32)c1)N1CCN(c2ccccc2O)CC1,"inconclusive: 17.8 µM [inhibitor, full curve]"
15,Cc1cccc(NC(=O)c2ccc(NC(=O)CC3SC(N4CCCC4)=NC3=O)cc2)n1 (stereo unspecified),"inconclusive: 89.1 µM [inhibitor, partial curve, poor fit]"
16,Cc1ccc(C)c(OCc2cc(C(=O)N3CCN(c4ccccc4)CC3)no2)c1,"inconclusive: 79.4 µM [inhibitor, partial curve, poor fit]"
17,Cc1cc(NS(=O)(=O)c2ccc(NC(=O)c3ccc(Br)o3)cc2)nc(C)n1,"inconclusive: 28.2 µM [inhibitor, partial curve, poor fit]"
18,O=C(NC(=S)Nc1ccccc1C(=O)O)c1ccc(-c2ccc(Br)cc2)o1,"inconclusive: 14.1 µM [inhibitor, partial curve, poor fit]"
19,COc1ccc(CC(=O)NCC(c2cccs2)S(=O)(=O)c2ccc(Cl)cc2)cc1 (stereo unspecified),inactive
20,COc1ccc(C(c2sc3nc(C)nn3c2O)N2CCCCC2)cc1 (stereo unspecified),"inconclusive: 70.8 µM [inhibitor, partial curve, poor fit]"
21,COc1ccc(C2CC(c3ccc(C(F)(F)F)cc3)=NN2c2ccc(S(N)(=O)=O)cc2)cc1 (stereo unspecified),"inconclusive: 39.8 µM [inhibitor, single point]"

# Reformatted bar-delimited: entries from further up
row | Structure (SMILES) | Potency
2 | CCN1CCSc2ccc(C(=O)NCc3ccccc3Br)cc21 | inconclusive: 79.4 µM [inhibitor, single point]
3 | N#C/C(=C\c1ccc[nH]1)S(=O)(=O)c1ccccc1 | inconclusive: 100 µM [inhibitor, partial curve]
4 | Cc1cccc(NC(=O)C2=C(O)c3ccccc3N(C)S2(=O)=O)c1 | inconclusive: 11.2 µM [inhibitor, partial curve, poor fit]
5 | Cc1[nH]n(-c2ccccc2)c(=O)c1/C=N/Nc1nncc(-c2ccccc2)n1 | inactive
6 | Cc1cccc(N(CC(N)=O)C2SC(=O)N(Cc3cccc(C(=O)O)c3)C2=O)c1 (stereo unspecified) | inactive
7 | CC(C)OC(=O)CSc1nc2ccccc2s1 | inconclusive: 39.8 µM [inhibitor, single point]
8 | O=C(C1=C(O)C(=O)N(CCc2ccccc2)C1c1ccncc1)c1cc2ccccc2o1 (stereo unspecified) | inconclusive: 25.1 µM [inhibitor, partial curve, poor fit]
9 | Brc1cccc[n+]1CCCC[n+]1ccccc1Br | inconclusive: 3.98 µM [inhibitor, full curve, poor fit]
10 | COC(=O)Cc1c(C)nc2nc(-c3ccc(C)cc3)[nH]n2c1=O | inactive
11 | CN1CCN(C2=C(Cl)C(=O)N(c3ccc(Cl)c(Cl)c3)C2=O)CC1 | inconclusive: 31.6 µM [inhibitor, partial curve, poor fit]
12 | Cc1cc(C)c2nc(NC(=O)c3cc(C)on3)sc2c1 | inconclusive: 11.2 µM [inhibitor, partial curve, poor fit]
13 | COc1cc(/C=C2/C(=N)N3N=C(CC(=O)N4CCOCC4)SC3=NC2=O)ccc1OCc1ccc(F)cc1 | inconclusive: 63.1 µM [inhibitor, partial curve, poor fit]
14 | O=C(c1ccc(Cl)c(S(=O)(=O)N2CCc3ccccc32)c1)N1CCN(c2ccccc2O)CC1 | inconclusive: 17.8 µM [inhibitor, full curve]
15 | Cc1cccc(NC(=O)c2ccc(NC(=O)CC3SC(N4CCCC4)=NC3=O)cc2)n1 (stereo unspecified) | inconclusive: 89.1 µM [inhibitor, partial curve, poor fit]
16 | Cc1ccc(C)c(OCc2cc(C(=O)N3CCN(c4ccccc4)CC3)no2)c1 | inconclusive: 79.4 µM [inhibitor, partial curve, poor fit]
17 | Cc1cc(NS(=O)(=O)c2ccc(NC(=O)c3ccc(Br)o3)cc2)nc(C)n1 | inconclusive: 28.2 µM [inhibitor, partial curve, poor fit]

# Later entries:

row,Structure (SMILES),Potency
1,COc1ccc2c(CNCCc3cccs3)c(C(=O)O)n(Cc3ccccc3C)c2c1,inactive
2,CN(CC(=O)Nc1ccccc1Cl)C(=O)c1ccc(-c2cccc(C(F)(F)F)c2)o1,"inconclusive: 79.4 µM [inhibitor, partial curve, poor fit]"
3,Cc1ccc2nc(CSc3nnc(-c4ccco4)n3-c3ccccc3)cc(=O)n2c1,"inconclusive: 44.7 µM [inhibitor, partial curve, poor fit]"
4,NS(=O)(=O)c1ccc(N/N=C/c2ccc(O)c(O)c2O)c([N+](=O)[O-])c1,active: 2.82 µM
5,COc1ccccc1N(C)S(=O)(=O)c1ccc(C(=O)Nc2nc(C)cs2)cc1,"inconclusive: 56.2 µM [inhibitor, single point]"
6,COC(=O)c1ccc(Cn2c(O)c(N=NC(N)=S)c3ccccc32)o1,active: 31.6 µM
7,COC(=O)c1ccccc1NC(=O)c1cc([N+](=O)[O-])nn1Cc1ccccc1,"inconclusive: 31.6 µM [inhibitor, partial curve, poor fit]"
8,CCc1ccc(NC(=O)c2ccc3c(=O)n4c(nc3c2)CCCCC4)cc1,"inconclusive: 89.1 µM [inhibitor, single point]"
9,Cc1ccc2nc(CN3CCN(C(=O)Nc4ccc(C)c(F)c4)CC3)oc2c1,"inconclusive: 89.1 µM [inhibitor, single point]"
10,NC(=O)c1sc2nc(-c3cccs3)ccc2c1N,"inconclusive: 35.5 µM [inhibitor, partial curve]"
11,COc1cc2cccc(OC)c(=O)c2c(O)c1OC,inactive
12,CCOC(=O)c1cc(-c2ccc(N3CCOCC3)cc2)nn1-c1ccccc1C(=O)O,"inconclusive: 79.4 µM [inhibitor, partial curve, poor fit]"
13,Cc1ccc(NC(=O)c2nc[nH]c2C(=O)NCCN(CCNC(=O)c2[nH]cnc2C(=O)Nc2ccc(C)cc2)CCNC(=O)c2[nH]cnc2C(=O)Nc2ccc(C)cc2)cc1,"inconclusive: 100 µM [inhibitor, single point]"
14,CCOC(=O)C1CCCN(C(=O)Cn2ncn3c(cc4sc(CC)cc43)c2=O)C1 (stereo unspecified),inactive
15,O=C(COc1ccc(-n2cnnn2)cc1)Nc1ccccc1Cl,active: 79.4 µM
16,CCC1=Nc2cc(C(=O)NCc3ccc(C)cc3)ccc2Sc2ccc(C)cc21,"inconclusive: 100 µM [inhibitor, partial curve, poor fit]"
17,CCOC(=O)CC1C(=O)NCCN1C(=O)c1cccc(OC)c1 (stereo unspecified),"inconclusive: 70.8 µM [inhibitor, single point]"
18,CCOC(=O)CCCC(=O)N1CCN(/[N+]([O-])=N/Oc2ccc([N+](=O)[O-])cc2[N+](=O)[O-])CC1,"inconclusive: 22.4 µM [inhibitor, single point]"
19,CCCCCc1ccc(-c2cn(Cc3ccc4c(c3)C(=O)c3ccccc3C4=O)nn2)cc1,inactive
20,O=C1NC(=O)/C(=C/c2ccccc2Oc2ccc(Cl)cc2)S1,"inconclusive: 22.4 µM [inhibitor, partial curve]"
21,NC(=O)NC(Cc1ccccc1)C(=O)NNC(=O)COc1ccccc1Cl (stereo unspecified),"inconclusive: 89.1 µM [inhibitor, single point]"

row,Structure (SMILES),Potency
1,Cc1ccc(C(=O)NNC(=O)c2cc3cc4ccccc4nc3s2)cc1,"inconclusive: 89.1 µM [inhibitor, single point]"
2,CN1CCc2c(sc(NC(=O)C3CCN(S(=O)(=O)c4cccs4)CC3)c2C(N)=O)C1,"inconclusive: 89.1 µM [inhibitor, single point]"
3,Cc1cc(NC(=O)c2cc3ncc(Br)cn3n2)no1,"inconclusive: 56.2 µM [inhibitor, partial curve, poor fit]"
4,CCn1c(SCC(=O)c2cc(C)ccc2C)nc2cc(S(=O)(=O)N3CCOCC3)ccc21,"inconclusive: 89.1 µM [inhibitor, single point]"
5,COCCNC(=O)C(c1cccc(OC)c1)N(C(=O)Cn1nnc2ccccc21)c1cccnc1 (stereo unspecified),"inconclusive: 8.91 µM [inhibitor, single point]"
6,CCOc1ccccc1CNC(=O)c1cc2c(=O)n(Cc3ccco3)ccc2nc1C,inactive
7,COc1ccc(C(=O)C2CCCN(Cc3cccc4c3OCO4)C2)cc1OC (stereo unspecified),"inconclusive: 70.8 µM [inhibitor, single point]"
8,COC(=O)c1ccccc1NC(=O)COC(=O)c1ccco1,"inconclusive: 50.1 µM [inhibitor, partial curve, poor fit]"
9,O=c1oc2ccccc2c(O)c1C=NCc1ccccn1,"inconclusive: 35.5 µM [inhibitor, partial curve, poor fit]"
10,CCOC(=O)c1c(NC(=O)CSc2nc3ccccc3c(=O)n2-c2ccc(F)cc2)sc(C(C)=O)c1C,"inconclusive: 28.2 µM [inhibitor, partial curve, poor fit]"
11,Cc1ccc(OCC(=O)Nc2nnc(SCc3cc(=O)n4cccc(C)c4n3)s2)cc1,"inconclusive: 89.1 µM [inhibitor, single point]"
12,CC(=O)c1sc(Nc2cccc3ccccc23)nc1C,"inconclusive: 39.8 µM [inhibitor, single point]"
13,COC(=O)/C=C/c1cc(F)ccc1S(=O)(=O)Nc1ccccc1,inactive
14,Nc1c(C(=O)OCC(=O)Nc2ccc(OC(F)F)cc2)[nH]c(=O)[nH]c1=O,"inconclusive: 31.6 µM [inhibitor, partial curve, poor fit]"
15,CCOC(=O)N1CCN(C(=O)CS(=O)(=O)Cc2nc(-c3ccccc3C)oc2C)CC1,"inconclusive: 12.6 µM [inhibitor, single point]"
16,O=C(/C=C/c1ccco1)Nc1sc2c(c1C(=O)O)CCC2,"inconclusive: 28.2 µM [inhibitor, full curve, poor fit]"
17,O=C(Cn1c(=O)n(Cc2ccccc2)c(=O)c2sc3ccccc3c21)Nc1ccc(F)cc1,inactive
18,CC1=C(C(=O)N2CCN(c3ccc(Cl)cc3)CC2)C2(CCC(C)CC2)OC1=O (stereo unspecified),inactive
19,CC1CCN(C2=NN3C(=N)/C(=C\c4ccc(OC(=O)c5ccco5)cc4)C(=O)N=C3S2)CC1,"inconclusive: 17.8 µM [inhibitor, single point]"
